Experiments:
[1] = Wet (solvent) extraction of metal ions from water phase W3 into kerosine oil phase containing the metal extractant
[2] = Wet (solvent) extraction of metal ions from water phase W1 into kerosine oil phase containing the metal extractant; conditions: for Selection Ratio: W1 (Co, Ni), maximum amount of metal ions extracted (ppm) divided by total amount of other metal ions extracted, shown as 100 where other ions were not extracted; for Extracted Metal Ions Kind / Extracted Metal Ions Maximum Amount Extracted: water phase W1 (Co, Ni); for metal ions of aqueous solution (W1) extracted to the oil phase: water phase W1
[3] = Wet (solvent) extraction of metal ions from water phase W2 into kerosine oil phase containing the metal extractant; conditions: for Selection Ratio: W2 (Rh, Pd), maximum amount of metal ions extracted (ppm) divided by total amount of other metal ions extracted; for extraction of the metal ions extracted in the maximum amount (Rh ions) from the water phase to the oil phase: water phase W2; for Metal Ion Concentration in Water Phase after Extraction (ppm) Pd / Metal Ion Concentration in Water Phase after Extraction (ppm) Rh: water phase W2: Rh 15,000 ppm and Pd 15,000 ppm before extraction, oil phase 310 mM extractant in kerosine, 25° C., mixing amount 1.30, ICP-OES
[4] = water phase W3: Co 15,000 ppm and Mn 15,000 ppm before extraction, oil phase 310 mM extractant in kerosine, pH during mixing 8.8, mixing amount 0.70, ICP-OES

| Molecule | Selection Ratio [2] | Extracted Metal Ions Kind [2] | Extracted Metal Ions Maximum Amount Extracted [2] | metal ions of aqueous solution (W1) extracted to the oil phase [2] | also measured |
| --- | --- | --- | --- | --- | --- |
| CCCCC(CC)COP(=O)(O)CCCP(=O)(O)OCC(CC)CCCC (centres unmarked) [E-1] | 2.0 | Co, Ni | Co |  | Selection Ratio ([1]; W3 (Co, Mn), maximum amount of metal ions extracted (ppm) divided by total amount of other metal ions extracted): 1.0; Extracted Metal Ions Kind ([1]; water phase W3 (Co, Mn)): Co, Mn; Extracted Metal Ions Maximum Amount Extracted ([1]; water phase W3 (Co, Mn)): Co; Metal Ion Concentration in Water Phase after Extraction (ppm) Co [1, 4]: 1,000 ppm; Metal Ion Concentration in Water Phase after Extraction (ppm) Mn [1, 4]: 1,500 ppm |
| CCCCC(CC)COP(=O)(O)CP(=O)(O)OCC(CC)CCCC (centres unmarked) [E-2] | 30 | Co, Ni | Co |  | Selection Ratio [3]: 15; extraction of the metal ions extracted in the maximum amount (Rh ions) from the water phase to the oil phase [3]: substantially in the entire amount; Metal Ion Concentration in Water Phase after Extraction (ppm) Pd [3]: 14,000 ppm; Metal Ion Concentration in Water Phase after Extraction (ppm) Rh [3]: 0 ppm |
| CCCCC(CC)COP(=O)(O)CP(=O)(OCC)OCC(CC)CCCC (centres unmarked) [E-3] | 19 | Co, Ni | Co |  | Selection Ratio [3]: 10; extraction of the metal ions extracted in the maximum amount (Rh ions) from the water phase to the oil phase [3]: substantially in the entire amount; Metal Ion Concentration in Water Phase after Extraction (ppm) Pd [3]: 13,500 ppm; Metal Ion Concentration in Water Phase after Extraction (ppm) Rh [3]: 0 ppm |
| CCCCC(CC)CC(CC(CC)CCCC)(C(=O)O)C(=O)O (centres unmarked) [E-4] | 1.4 | Co, Ni | Co |  |  |
| CCCCC(CC)COP(=O)(O)CCP(=O)(O)OCC(CC)CCCC (centres unmarked) [E-5] | 1.9 | Co, Ni | Co |  |  |
| CCCCCCCCOP(=S)(S)CP(=S)(S)OCCCCCCCC (centres unmarked) [E-6] | 1.8 | Co, Ni | Co |  |  |
| CCCCC(CC)COP(=O)(CP(=O)(OCC)OCC(CC)CCCC)OCC (centres unmarked) [E-7] |  | None | None | cannot be extracted |  |
| CCCCC(CC)COP(=O)(O)C(C)(O)P(=O)(O)OCC(CC)CCCC (centres unmarked) [E-8] | 1.4 | Co, Ni | Co |  |  |
| CCCCC(CC)COP(=O)(O)CC(CC)CCCC (centres unmarked) [PC-88A, mono-2-ethylhexyl (2-Ethylhexyl)phosphonate, reference compound] | 100 | Co | Co | only Co ions |  |
| Versatic acid 10 [VA-10, reference compound] | 100 | Co |  | only Co ions |  |
